Data from patent US6353015B1, “Method of treating neurodegenerative disorders” (St. Elizabeth's Medical Center, priority 1998, dated 2002).

System: rat pineal
Assay: Rat pineal levels of NAS and melatonin after systemic administration
Details: preliminary experiments

SMILES: CCC(=O)NCCc1c[nH]c2ccc(OCc3ccccc3)cc12 [CA-15, N-[2-(5-Benzyloxyindol-3-yl)ethyl]propanamide]
- rat pineal level of NAS: did not change
- rat pineal level of melatonin: did not change

SMILES: CCCC(=O)NCCc1c[nH]c2ccc(OCc3ccccc3)cc12 [CA-18, N-[2-(5-Benzyloxyindol-3-yl)ethyl] butanamide]
- rat pineal level of NAS: did not change
- rat pineal level of melatonin: did not change
